These are yes or no findings as the source states them, for the method shown. In cells and extracts the contact can be indirect. Some entries that bind do so weakly or less than the wild type.
What was measured:
Importin 8 (IPO8) = Importin 8 (IPO8) (UniProt O15397); test: co-IP; HEK293T cells co-transfected with pcDNA3.1-IPO8 and pcDNA3.1-p65 for 24 h; lysate in immunoprecipitation buffer, protein A/G magnetic beads and antibodies, Western blotting
IPO8 22–102 domain = IPO8 22–102 domain (UniProt O15397); test: co-IP; HEK293T cells transfected with IPO8 22–102; lysate in immunoprecipitation buffer, protein A/G magnetic beads and antibodies, Western blotting

The chains behind the UniProt entries cited, without tags or fusion partners. Where a name states a change or a piece, a line headed by the entry shows the natural chain unless it says otherwise. Residues count along the entry.
UniProt O15397: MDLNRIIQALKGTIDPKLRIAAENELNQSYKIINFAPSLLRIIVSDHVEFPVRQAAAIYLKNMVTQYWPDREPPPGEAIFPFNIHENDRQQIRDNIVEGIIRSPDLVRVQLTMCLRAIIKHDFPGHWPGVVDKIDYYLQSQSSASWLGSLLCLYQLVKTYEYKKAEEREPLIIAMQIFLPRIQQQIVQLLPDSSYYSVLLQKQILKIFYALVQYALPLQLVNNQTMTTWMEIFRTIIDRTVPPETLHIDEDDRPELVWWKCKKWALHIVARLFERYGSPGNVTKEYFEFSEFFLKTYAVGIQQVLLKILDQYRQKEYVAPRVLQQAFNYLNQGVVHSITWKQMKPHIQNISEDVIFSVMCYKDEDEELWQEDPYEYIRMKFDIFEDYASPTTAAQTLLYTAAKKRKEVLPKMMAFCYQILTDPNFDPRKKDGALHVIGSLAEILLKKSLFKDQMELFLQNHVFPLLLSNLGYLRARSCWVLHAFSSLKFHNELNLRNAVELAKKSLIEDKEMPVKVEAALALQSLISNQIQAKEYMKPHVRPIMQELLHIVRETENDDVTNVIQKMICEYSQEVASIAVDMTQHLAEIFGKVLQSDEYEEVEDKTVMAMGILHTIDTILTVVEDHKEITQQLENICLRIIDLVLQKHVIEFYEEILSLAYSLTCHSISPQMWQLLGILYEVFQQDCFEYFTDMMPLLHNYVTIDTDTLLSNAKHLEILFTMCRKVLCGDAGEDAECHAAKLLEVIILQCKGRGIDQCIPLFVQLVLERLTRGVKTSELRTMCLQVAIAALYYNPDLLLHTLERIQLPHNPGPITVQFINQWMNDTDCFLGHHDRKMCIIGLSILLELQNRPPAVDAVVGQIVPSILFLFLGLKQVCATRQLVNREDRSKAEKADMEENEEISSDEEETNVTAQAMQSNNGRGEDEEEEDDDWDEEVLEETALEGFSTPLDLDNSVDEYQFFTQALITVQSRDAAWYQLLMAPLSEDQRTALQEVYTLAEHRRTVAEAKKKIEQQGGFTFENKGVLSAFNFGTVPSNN
IPO8 22–102 domain: residues 22-102 of O15397
UniProt Q04206: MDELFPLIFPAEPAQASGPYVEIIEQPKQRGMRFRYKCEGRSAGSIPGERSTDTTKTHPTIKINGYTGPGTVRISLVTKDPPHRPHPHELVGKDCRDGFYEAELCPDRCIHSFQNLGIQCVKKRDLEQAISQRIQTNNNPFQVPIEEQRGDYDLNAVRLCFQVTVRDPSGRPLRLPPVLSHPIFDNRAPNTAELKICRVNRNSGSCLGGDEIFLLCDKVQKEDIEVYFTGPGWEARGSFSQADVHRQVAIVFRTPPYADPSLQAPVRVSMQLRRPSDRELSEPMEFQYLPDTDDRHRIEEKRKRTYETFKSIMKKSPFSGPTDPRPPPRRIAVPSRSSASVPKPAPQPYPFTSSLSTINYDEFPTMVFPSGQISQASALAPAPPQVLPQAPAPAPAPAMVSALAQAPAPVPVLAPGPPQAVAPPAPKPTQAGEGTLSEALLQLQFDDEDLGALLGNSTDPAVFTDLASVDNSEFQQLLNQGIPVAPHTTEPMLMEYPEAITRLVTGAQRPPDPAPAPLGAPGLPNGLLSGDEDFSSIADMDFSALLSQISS

Substance | binding (Importin 8 (IPO8)) | binding (IPO8 22–102 domain)
NF-κB subunit p65 (from UniProt Q04206 1-551) | binds | –
NF-κB subunit p65 (in HEK293T cells transfected with IPO8 22–102) (from UniProt Q04206 1-551) | – | binds

— PMC12566618
